Results taken from PMC3602376.
No constants are given. Whether binding was seen depends on the method and setting.

Protein sequences, listed by entry. Tags and fused reporters are not part of them. Lines headed by an entry give the natural chain unless they say otherwise; changes in a name come on top.
UniProt Q9FGJ3: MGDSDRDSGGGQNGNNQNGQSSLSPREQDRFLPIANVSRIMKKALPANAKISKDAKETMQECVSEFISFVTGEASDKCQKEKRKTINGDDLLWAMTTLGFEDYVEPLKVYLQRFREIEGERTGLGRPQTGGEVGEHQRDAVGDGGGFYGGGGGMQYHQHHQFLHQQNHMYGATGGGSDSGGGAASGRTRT
UniProt Q67XJ2: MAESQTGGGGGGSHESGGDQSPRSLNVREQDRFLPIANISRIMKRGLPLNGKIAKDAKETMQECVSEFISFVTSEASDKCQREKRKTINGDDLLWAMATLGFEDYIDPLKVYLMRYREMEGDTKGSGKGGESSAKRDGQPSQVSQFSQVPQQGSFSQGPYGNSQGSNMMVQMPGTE

Assays:
Assay in all cases: two-hybrid; directed Y2H, ProQuest Two-Hybrid System (pDEST22, pDEST32); NF-YB or NF-YC constructs fused to DBD, bZIP proteins fused to AD; beta-galactosidase (X-Gal) reporter, similar activation seen for two other reporters
[1] = target: NF-YB10 C-terminal region (B10C, AA 123–228) (Arabidopsis thaliana (Col-0 cDNA))
[2] = target: NF-YB2 from the first AA of the HFM through the end (B2HFM+B2C, AA 26–190) (Arabidopsis thaliana (Col-0 cDNA)) (UniProt Q9FGJ3)
[3] = target: NF-YB2 from the start through the HFM (B2N+B2HFM, AA 1–121) (Arabidopsis thaliana (Col-0 cDNA)) (UniProt Q9FGJ3)
[4] = target: NF-YB10 N-terminal region (B10N, AA 1–22) (Arabidopsis thaliana (Col-0 cDNA)) (UniProt Q67XJ2)
[5] = target: NF-YB10, full length (Arabidopsis thaliana (Col-0 cDNA)) (UniProt Q67XJ2)

Measured: binding

B1: ABA BINDING FACTOR 3 (ABF3), full length (protein, UniProt Q9M7Q3 1-454)
chain: MGSRLNFKSFVDGVSEQQPTVGTSLPLTRQNSVFSLTFDEFQNSWGGGIGKDFGSMNMDELLKNIWTAEESHSMMGNNTSYTNISNGNSGNTVINGGGNNIGGLAVGVGGESGGFFTGGSLQRQGSLTLPRTISQKRVDDVWKELMKEDDIGNGVVNGGTSGIPQRQQTLGEMTLEEFLVRAGVVREEPQPVESVTNFNGGFYGFGSNGGLGTASNGFVANQPQDLSGNGVAVRQDLLTAQTQPLQMQQPQMVQQPQMVQQPQQLIQTQERPFPKQTTIAFSNTVDVVNRSQPATQCQEVKPSILGIHNHPMNNNLLQAVDFKTGVTVAAVSPGSQMSPDLTPKSALDASLSPVPYMFGRVRKTGAVLEKVIERRQKRMIKNRESAARSRARKQAYTMELEAEIAQLKELNEELQKKQVEIMEKQKNQLLEPLRQPWGMGCKRQCLRRTLTGPW
no binding: all assays above
